Entries after “also recorded” stand apart in the source; their conditions may differ.
Assay: double-blind, randomized comparative taste-test of oral alpha-lipoic acid solutions (throat irritation, overall liking)
Format: in vivo
Settings: individual subject ratings (one grid row per subject), nine designations, oral solution standardized to 0.5% w/v ALA

O=C([O-])CCCCC1CCSS1.[Na+] (centres unmarked) [Na-ALA]
OVERALL (Overall Liking): Dislike Mod; also recorded: Like Slightly; also recorded: Neither

NC(CO)(CO)CO.O=C(O)CCCCC1CCSS1 (centres unmarked) [TR-ALA, tris(hydroxymethyl) amino methane thioctate]
OVERALL (Overall Liking) (listed as ALA-TR): Dislike Mod; also recorded: Neither; also recorded: Like Slightly
